In patent US20070105158A1, “Recombined cell system for deorphanizing g protein-coupled receptors” (Deutsches Institut fur Ernahrungsforschung-Stiftun, priority 2003, published 2007):
At least one structure is not confirmed: it was looked up by name or label, or the drawing left a doubt.

System: ACs (adenylyl cyclases)
Format: cell-based, human
Details: cells stimulated with (−)citronellal (10 μM), FLIPR; read-out: EC50 of forskolin pre-treatment

C=C[C@@]1(C)CC(=O)[C@]2(O)[C@@]3(C)[C@@H](O)CCC(C)(C)[C@@H]3[C@H](O)[C@H](OC(C)=O)[C@@]2(C)O1 [forskolin]
EC50: 700 ± 400 nM
